Measured values from paper PMC10687025.
Results are given in words; binding and its absence hold for the method and conditions named. Some results given as binding are weak or reduced against the parent protein; the word gives no strength. Where a sequence is shown, tags or fusion partners need not be part of it.

Key:
Test in all cases: two-hybrid; yeast strain L40; LexA DNA-binding domain fusions (pBTM116) against Gal4 activation domain fusions; His+ colonies patched on selective plates and assayed for β-galactosidase activity on filters; 30 °C
[1] = biological target: T1, Arl4D Q80L fused to the LexA DNA-binding domain (UniProt P49703)
T1 sequence: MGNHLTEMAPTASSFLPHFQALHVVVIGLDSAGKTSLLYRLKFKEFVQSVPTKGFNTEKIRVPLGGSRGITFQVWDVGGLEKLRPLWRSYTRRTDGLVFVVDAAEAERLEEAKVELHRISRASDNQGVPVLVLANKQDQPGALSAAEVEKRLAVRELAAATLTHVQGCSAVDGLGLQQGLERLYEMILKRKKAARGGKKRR

[2] = biological target: T2, Arl4A WT fused to the LexA DNA-binding domain (UniProt P40617)
T2 sequence: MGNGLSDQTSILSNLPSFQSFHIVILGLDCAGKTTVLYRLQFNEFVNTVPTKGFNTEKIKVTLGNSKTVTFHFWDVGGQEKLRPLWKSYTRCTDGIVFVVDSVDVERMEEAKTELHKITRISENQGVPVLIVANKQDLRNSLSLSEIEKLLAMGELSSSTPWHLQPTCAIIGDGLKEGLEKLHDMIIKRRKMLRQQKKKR

[3] = biological target: T3, Arl4C WT fused to the LexA DNA-binding domain (UniProt P56559)
T3 sequence: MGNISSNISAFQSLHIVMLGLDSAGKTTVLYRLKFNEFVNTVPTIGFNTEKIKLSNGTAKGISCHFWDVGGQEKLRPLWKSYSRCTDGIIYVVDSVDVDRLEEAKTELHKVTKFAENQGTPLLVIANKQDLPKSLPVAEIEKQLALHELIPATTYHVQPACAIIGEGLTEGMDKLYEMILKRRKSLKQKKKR

[4] = biological target: T4, Arl4A Q79L fused to the LexA DNA-binding domain (UniProt P40617)
T4 sequence: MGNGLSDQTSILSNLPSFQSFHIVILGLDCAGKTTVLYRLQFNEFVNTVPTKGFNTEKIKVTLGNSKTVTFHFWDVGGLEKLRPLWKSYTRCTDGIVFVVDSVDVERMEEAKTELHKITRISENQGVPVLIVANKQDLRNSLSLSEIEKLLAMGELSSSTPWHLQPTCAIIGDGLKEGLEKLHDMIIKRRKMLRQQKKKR

[5] = biological target: T5, Arl4C T27N fused to the LexA DNA-binding domain (UniProt P56559)
T5 sequence: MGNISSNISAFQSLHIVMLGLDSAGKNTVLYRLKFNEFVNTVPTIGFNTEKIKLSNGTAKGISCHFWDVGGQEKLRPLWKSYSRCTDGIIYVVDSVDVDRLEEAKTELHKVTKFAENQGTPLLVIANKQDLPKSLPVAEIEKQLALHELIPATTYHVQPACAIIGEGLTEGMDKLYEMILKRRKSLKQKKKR

[6] = biological target: T6, Arl4A T34N fused to the LexA DNA-binding domain (UniProt P40617)
T6 sequence: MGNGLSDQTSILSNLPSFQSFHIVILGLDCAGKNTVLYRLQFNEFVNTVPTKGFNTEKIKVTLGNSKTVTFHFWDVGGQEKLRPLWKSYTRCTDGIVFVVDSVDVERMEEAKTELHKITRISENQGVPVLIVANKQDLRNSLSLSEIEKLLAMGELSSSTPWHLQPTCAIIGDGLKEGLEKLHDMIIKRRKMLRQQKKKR

[7] = biological target: T7, Arl4D WT fused to the LexA DNA-binding domain (UniProt P49703)
T7 sequence: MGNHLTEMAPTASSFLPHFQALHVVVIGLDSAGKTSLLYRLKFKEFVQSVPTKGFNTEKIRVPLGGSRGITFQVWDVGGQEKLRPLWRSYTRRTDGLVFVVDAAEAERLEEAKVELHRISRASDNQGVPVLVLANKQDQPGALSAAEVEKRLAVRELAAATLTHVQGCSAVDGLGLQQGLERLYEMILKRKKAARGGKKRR

[8] = biological target: T8, Arl4C T44N fused to the LexA DNA-binding domain (UniProt P56559)
T8 sequence: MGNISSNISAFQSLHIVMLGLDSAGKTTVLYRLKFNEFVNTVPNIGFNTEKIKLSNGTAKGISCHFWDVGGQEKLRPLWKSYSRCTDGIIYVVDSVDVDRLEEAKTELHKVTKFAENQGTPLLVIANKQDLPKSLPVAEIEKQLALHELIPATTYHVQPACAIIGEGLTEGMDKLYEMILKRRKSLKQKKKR

[9] = biological target: T9, Arl4A T51N fused to the LexA DNA-binding domain (UniProt P40617)
T9 sequence: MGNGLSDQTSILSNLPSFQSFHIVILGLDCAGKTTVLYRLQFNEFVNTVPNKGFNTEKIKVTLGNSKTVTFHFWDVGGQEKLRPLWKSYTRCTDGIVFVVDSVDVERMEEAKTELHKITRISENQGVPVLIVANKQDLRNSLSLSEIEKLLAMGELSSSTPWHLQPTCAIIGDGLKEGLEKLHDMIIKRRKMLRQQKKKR

[10] = biological target: T10, Arl4D T35N fused to the LexA DNA-binding domain (UniProt P49703)
T10 sequence: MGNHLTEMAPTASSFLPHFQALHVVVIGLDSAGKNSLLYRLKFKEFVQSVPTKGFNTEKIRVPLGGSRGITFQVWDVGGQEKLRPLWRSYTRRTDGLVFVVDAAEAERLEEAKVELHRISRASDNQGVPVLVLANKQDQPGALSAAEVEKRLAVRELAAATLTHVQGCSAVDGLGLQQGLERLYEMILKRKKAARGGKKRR

[11] = biological target: T11, Arl4C Q72L fused to the LexA DNA-binding domain (UniProt P56559)
T11 sequence: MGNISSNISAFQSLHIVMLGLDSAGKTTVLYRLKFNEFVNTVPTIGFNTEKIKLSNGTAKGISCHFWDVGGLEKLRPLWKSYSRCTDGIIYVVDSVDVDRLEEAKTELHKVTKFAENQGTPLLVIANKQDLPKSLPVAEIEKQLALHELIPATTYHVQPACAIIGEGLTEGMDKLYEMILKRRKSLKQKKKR

B1: Gal4 transcriptional activation domain-fused VPS36 (330–386) (domain or fragment, UniProt Q86VN1 330-386)
chain: TVSEKGSLTSEEFAKLVGMSVLLAKERLLLAEKMGHLCRDDSVEGLRFYPNLFMTQS
- binding [1]: no binding
- binding [2]: binds
- binding [3]: no binding
- binding [4]: binds
- binding [5]: no binding
- binding [6]: binds
- binding [7]: no binding
- binding [8]: no binding
- binding [9]: binds
- binding [10]: no binding
- binding [11]: no binding
